The list is a part of this screen's results and no random one: it is rich in T/C values a quarter to a half above the control, in often repeated tests (any T/C) and in doses without a T/C. Other doses and runs of a compound stand elsewhere. T/C: endpoint of the treated group in % of that of the vehicle group. Some doses have a count of surviving animals in place of a T/C: the source files T/C as zero there, which appears to mark a toxic dose or a test without result, not a measured value. Some survivor counts are full or nearly so, which does not show that the dose was tolerated: survival well below the control is almost never listed, so the zero probably covers shortened survival too. Survivors were counted at the toxicity check, usually on the fifth day, unless a day is given; later deaths do not show. Schedule codes are those of the source, read here as Q, the interval in days (D) or hours (H), X, the number of doses. For survival time, this PubChem deposit counts one and a half times the control or more as active, and values a quarter to a half above the control carry no call in these data; other NCI protocols may use other cut-offs. Some entries hold several experiments; the values are given in rising order. Some T/C values are followed by the survivors on the day toxicity was checked, most often the fifth; where none is given, no animal had died by that day.
Tested on: P388 leukemia ip, CD2F1 mice, survival T/C
Test: NCI In Vivo Anticancer Drug Screen. Data for tumor model P388 Leukemia (intraperitoneal) in CD2F1 (CDF1) mice
Conditions: T/C endpoint: median survival time, higher T/C = longer survival

With `NC(=S)N/N=C/c1cc(-c2cccc(N)c2)ccn1` the T/C (dose: 3.13 mg/kg/injection, schedule: Q01DX009 (ip), vehicle: saline) was 125 % of control, the T/C (dose: 6.25 mg/kg/injection, schedule: Q01DX009 (ip), vehicle: saline with Tween-80) was 130 % of control and the T/C (dose: 6.25 mg/kg/injection, schedule: Q01DX009 (ip), vehicle: saline) was 136 % of control [9 of 10 alive]. For the same molecule, the T/C (dose: 12.5 mg/kg/injection, schedule: Q01DX009 (ip), vehicle: saline with Tween-80) was 135 % of control, the T/C (dose: 12.5 mg/kg/injection, schedule: Q01DX009 (ip), vehicle: saline) was 125 and 145 % of control and the T/C (dose: 25.0 mg/kg/injection, schedule: Q01DX009 (ip), vehicle: saline with Tween-80) was 145 % of control. The T/C (dose: 25.0 mg/kg/injection, schedule: Q01DX009 (ip), vehicle: saline) was 147 % of control, the T/C (dose: 37.5 mg/kg/injection, schedule: Q04DX003 (ip), vehicle: saline) was 127 % of control and the T/C (dose: 50.0 mg/kg/injection, schedule: Q01DX009 (ip), vehicle: saline with Tween-80) was 147 % of control. For the same molecule, the T/C (dose: 50.0 mg/kg/injection, schedule: Q01DX009 (ip), vehicle: saline) was 149 % of control, the T/C (dose: 75.0 mg/kg/injection, schedule: Q04DX003 (ip), vehicle: saline) was 125 % of control and the survivor count (dose: 100.0 mg/kg/injection, schedule: Q01DX009 (ip), vehicle: saline with Tween-80) was 10 of 10. For the same molecule, the survivor count (dose: 150.0 mg/kg/injection, schedule: Q01DX009 (ip), vehicle: saline with Tween-80) was 0 of 10 and the survivor count (dose: 200.0 mg/kg/injection, schedule: Q01DX009 (ip), vehicle: saline with Tween-80) was 0 of 10.

With `CCOC(=O)Nc1cc2c(c(N)n1)N=C(c1ccc(Cl)cc1)CN2` the T/C (dose: 6.0 mg/kg/injection, schedule: Q01DX009 (ip), vehicle: Klucel (hydroxypropylcellulose) (HPC)) was 125 % of control, the T/C (dose: 6.25 mg/kg/injection, schedule: Q01DX009 (ip), vehicle: Klucel (hydroxypropylcellulose) (HPC)) was 138 % of control and the T/C (dose: 12.5 mg/kg/injection, schedule: Q04DX003 (ip), vehicle: Klucel (hydroxypropylcellulose) (HPC)) was 137 % of control. The survivor count (dose: 25.0 mg/kg/injection, schedule: Q01DX009 (ip), vehicle: Klucel (hydroxypropylcellulose) (HPC)) was 5 of 6, the T/C (dose: 25.0 mg/kg/injection, schedule: Q04DX003 (ip), vehicle: Klucel (hydroxypropylcellulose) (HPC)) was 137 % of control and the survivor count (dose: 50.0 mg/kg/injection, schedule: Q01DX009 (ip), vehicle: Klucel (hydroxypropylcellulose) (HPC)) was 3 of 6. For the same molecule, the survivor count (dose: 100.0 mg/kg/injection, schedule: Q04DX003 (ip), vehicle: Klucel (hydroxypropylcellulose) (HPC)) was 6 of 6.

With `Cc1c[n+]([O-])ccc1Br` the survivor count (dose: 100.0 mg/kg/injection, schedule: Q01DX009 (ip), vehicle: water) was 5 of 6.

With `O=Cc1cccc[n+]1Cc1ccc2c(c1)OCO2` the survivor count (dose: 100.0 mg/kg/injection, schedule: Q01DX009 (ip), vehicle: distilled water + Tween-80) was 0 of 6, the survivor count (dose: 200.0 mg/kg/injection, schedule: Q01DX009 (ip), vehicle: distilled water + Tween-80) was 0 of 6 and the survivor count (dose: 400.0 mg/kg/injection, schedule: Q01DX009 (ip), vehicle: distilled water + Tween-80) was 0 of 6.
